Patent US9670432B2, “Biological method for preventing rancidity, spoilage and instability of hydrocarbon and water emulsions and also increase the lubricity of the same” (priority 2013, dated 2017)
Some results were stated once for a whole list of compounds, not compound by compound.

Test: NFPA health rating comparison with commonly used biocides
Conditions: postulated

Substance | NFPA health rating, times better than commonly used biocides
Copper Stearate | 2 to 3 times
Copper Oleate | 2 to 3 times
